Reference: article PMC12040169 (PLOS Biology, 2025)
The list shows a part of the results.

These compounds were tested on T1, CTL2-GFP (C. trachomatis L2/434/Bu, GFP-expressing). Conditions: bulk GFP, single well; 28.5 h, 10 µM; inhibitor.
T1 construct: L2/434/Bu, GFP-expressing
Set-up: species or system HeLa; Intracellular C. trachomatis growth in HeLa cells, bulk GFP fluorescence relative to DMSO

| SMILES | % of control remaining [%] |
| --- | --- |
| COCCCNC(=O)Cn1cccc2cc(-c3ccc(F)cc3)nc1-2 [CBK284834] | 155.864 |
| CCOc1cc(OCC)cc(C(=O)N2CCC3(CC2)NC(=O)c2ccc(C)cc2O3)c1 [CBK166215] | 97.3896 |
| O=C(Cc1ccsc1)N1CCC2(CCN(Cc3ccccc3)CC2)C1 [CBK136742] | 125.673 |
| c1cnn(CC2CCCCN2c2ncnc3sccc23)c1 (stereo not drawn) [CBK304969] | 128.244 |
| O=C(Nc1ccc2[nH]ccc2c1)c1ccc(OC(F)(F)F)cc1 [CBK159688] | 95.68 |
| CC(=O)Nc1cccc(C(=O)N(Cc2ccccc2)Cc2ccccc2)c1 [CBK269295] | 93.4152 |
| Cc1nc2c(C(=O)NCC3OCCO3)cnn2c(C)c1Cc1ccc(Br)cc1 [CBK167467] | 155.777 |
| COC(=O)c1c(NC(=O)CC2Nc3ccccc3NC2=O)sc2c1CCC2 (stereo not drawn) [CBK269307A] | 150.594 |
| O=C(NCC(=O)N1CCc2ccccc2C1)C1CCCCC1 [CBK306049] | 120.191 |
| Cc1nc(NC(=N)Nc2ccccc2C(F)(F)F)[nH]c(=O)c1Cc1ccccc1 [CBK269083] | 104.431 |
| O=C(Cc1cccs1)N1CCC(O)(c2cccnc2)CC1 [CBK283501] | 116.738 |
| CCOc1ccc(S(=O)(=O)NCc2ccncc2)cc1NC(C)=O [CBK269527] | 115.554 |
| Cc1ccc(OCc2cc(C)on2)c(Br)c1 [CBK002837] | 96.3389 |
| CCOC(=O)C1CCCN1Cc1ccccc1 (stereo not drawn) [CBK278278G] | 106.867 |
| COc1ccc2[nH]cc(CCNC(=O)CCCN(C)C)c2c1 [CBK116202] | 122.633 |
| COc1ccc(CCNC(=O)c2ccccc2N(C)S(C)(=O)=O)cc1 [CBK266833] | 110.364 |
| Cc1c(NC2CCN(c3ccc(C#N)cc3)C2=O)cnn1C1CCCC1 (stereo not drawn) [CBK304735] | 104.724 |
| O=c1[nH]c2ccccc2n1CCCN1CCC(Cc2ccccc2)CC1 [CBK138318] | 120.957 |
| O=C(Cn1c(-c2cccs2)cc2cccnc21)NCC1CC1 [CBK282553] | 103.399 |
| COC(=O)CCc1ccc(Oc2ncc(C(F)(F)F)cc2Cl)cc1 [CBK161628] | 97.1424 |
| COc1cc(C=C2SC(NCC(=O)O)=NC2=O)ccc1OCc1ccc(Cl)cc1Cl [CBK297555] | 125.455 |
| O=S(=O)(c1ccc(F)c(Cl)c1)n1ccc2c(N3CCNCC3)nccc21 [CBK059059C] | 82.8587 |
| FC(F)(F)c1nnc2ccc(-n3ccnc3)nn12 [CBK020041] | 115.171 |
| N#CCCSc1nnc(-c2cccnc2)n1Cc1ccccc1 [CBK267526] | 130.141 |
| Cc1ccc(S(=O)(=O)Nc2c(C(=O)O)[nH]c3ccccc23)cc1 [CBK049880] | 101.917 |
| O=C(NC(Cc1cnc[nH]1)C(=O)O)c1ccccc1 (stereo not drawn) [CBK059018] | 115.17 |

| SMILES | % of control remaining [%] |
| --- | --- |
| CC1CCc2sc3ncnc(N4CCN(CCOC(c5ccccc5)c5ccccc5)CC4)c3c2C1 (stereo not drawn) [CBK264884] | 100 |
| CC(C)(CSc1nnc(Nc2ccccc2)s1)NS(=O)(=O)c1ccc(Cl)cc1 [CBK266388] | 95.022 |
| Cc1ccc(S(=O)(=O)N(C)c2c(C)ccc(S(=O)(=O)N3CCN(C)CC3)c2C)cc1 [CBK265642] | 122.738 |
| COCCn1c(=O)[nH]c2ncc(-c3ccsc3)nc21 [CBK064156] | 75.3987 |
| O=C(c1cscn1)N1C2CCC1CC(O)(c1ccco1)C2 (stereo not drawn) [CBK284135] | 94.1603 |
| CN1CCN(c2cc(-c3ccccc3N(C)C)nc3ccnn23)CC1 [CBK037158] | 98.3838 |
| CS(=O)(=O)c1ccc(-c2cnc(N)c3ncccc23)cc1 [CBK067593] | 150.52 |
| COc1ccc(OCCNC(=O)c2ccc(C)nc2NCCCn2ccnc2)cc1 [CBK076385] | 109.806 |
| C/C(=C\C(=O)NC1CC(C)(C)NC(C)(C)C1)NC1CC(C)(C)NC(C)(C)C1 [CBK261982] | 118.258 |
| CCC(C)NC(=O)Cn1c(C2CCOCC2)cc2cc(C)cnc21 (stereo not drawn) [CBK284756] | 119.029 |
| CCn1ncc(S(=O)(=O)Nc2ccc3c(ccn3C)c2)c1C [CBK282730] | 126.378 |
| Cn1c(=O)n(Cc2ccc(Cl)cc2)c2cccnc21 [CBK282333] | 124.474 |
| O=C(CSc1nnnn1-c1cccnc1)NC1CCCCCC1 [CBK270092] | 158.872 |
| CC(=O)Nc1nonc1OCCOc1nonc1NC(C)=O [CBK020227] | 131.933 |
| CC(NC(=O)c1ncoc1-c1ccccc1F)c1ccccn1 (stereo not drawn) [CBK282402] | 143.742 |
| CCCCNC(=S)N[C@H]1CC[C@@]2(Cc3ccc(OC)cc3)CCN(C)[C@H]2C1 [CBK004258] | 121.366 |
| O=S(=O)(c1cccc(C(F)(F)F)c1)n1ccc2c(CN3CCC[C@@H]3CO)cccc21 [CBK116167T] | 91.5037 |
| CCCNc1cc(C)c(C#N)c2nc3ccccc3n12 [CBK288097] | 153.893 |
| O=C(O)C1CCCN(C(=O)NCc2cccc(C(F)(F)F)c2)C1 (stereo not drawn) [CBK161345] | 122.516 |
| CCCCOC(=O)c1ccccc1NC(=O)NCCc1cccs1 [CBK043573] | 121.781 |
| O=C(CSc1nc2ccccc2s1)c1cccc([N+](=O)[O-])c1 [CBK262130] | 100 |
| CC(=O)c1cccc(NC(=O)CN(c2cc(Cl)ccc2Cl)S(=O)(=O)c2ccc(C)cc2)c1 [CBK268897] | 64.4384 |
| CCC(C)(C)c1ccc(S(=O)(=O)Nc2n[nH]cc2Br)cc1 [CBK043734] | 112.562 |
| COc1cccc2cc(C(=O)NCC3COc4ccccc4O3)oc12 (stereo not drawn) [CBK149791] | 93.037 |
| CC1CCN(C(=O)C2C3CCC4(CC(=O)c5ccccc5O4)C32)CC1 (stereo not drawn) [CBK284872] | 132.644 |

3 records picked at random from the list so far, as already listed:

| SMILES | % of control remaining [%] |
| --- | --- |
| COc1ccc(CCNC(=O)c2ccccc2N(C)S(C)(=O)=O)cc1 [CBK266833] | 110.364 |
| COCCn1c(=O)[nH]c2ncc(-c3ccsc3)nc21 [CBK064156] | 75.3987 |
| CCC(C)(C)c1ccc(S(=O)(=O)Nc2n[nH]cc2Br)cc1 [CBK043734] | 112.562 |
